# Source: the supplement of paper PMC8728848
# The other results are listed elsewhere or left out.
# Legend:
# Assay in all cases: glycan array binding signal (z-score within array); higher = stronger binding
# Conditions in all cases: glycan notation: IUPAC condensed, linker removed
# [1] = target: Neu5Ac(a2-3)Gal(b1-4)GlcNAc(b1-2)[Neu5Ac(a2-3)Gal(b1-4)GlcNAc(b1-6)]Man(a1-6)[Neu5Ac(a2-3)Gal(b1-4)GlcNAc(b1-2)Man(a1-3)]Man(b1-4)GlcNAc(b1-4)GlcNAc
# Outline: (§1)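 Negative Z-scores can be read as non-binding. The Z-score is calculated within each array and then averaged across arrays of one protein sequence at different concentrations or buffers and across linkers. Arrays, 3228 in all, were curated from the Consortium for Functional Glycomics database and kept only where the protein sequence was available.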
# [2] = target: Neu5Ac(a2-3)Gal(b1-4)GlcNAc(b1-2)[Neu5Ac(a2-3)Gal(b1-4)GlcNAc(b1-6)]Man(a1-6)[Neu5Ac(a2-3)Gal(b1-4)GlcNAc(b1-2)Man(a1-3)][GlcNAc(b1-4)]Man(b1-4)GlcNAc(b1-4)GlcNAc
# Outline: as §1
# [3] = target: Neu5Ac(a2-3)Gal(b1-4)GlcNAc(b1-3)Gal
# Outline: as §1
# [4] = target: Neu5Ac(a2-3)Gal(b1-4)GlcNAc(b1-3)Gal(b1-3)GlcNAc
# Outline: as §1
# [5] = target: Neu5Ac(a2-3)Gal(b1-4)GlcNAc(b1-3)Gal(b1-4)GlcNAc
# Outline: as §1
# [6] = target: Neu5Ac(a2-3)Gal(b1-4)GlcNAc(b1-3)Gal(b1-4)GlcNAc(b1-2)Man(a1-3)[Neu5Ac(a2-3)Gal(b1-4)GlcNAc(b1-3)Gal(b1-4)GlcNAc(b1-2)Man(a1-6)]Man(b1-4)GlcNAc(b1-4)GlcNAc
# Outline: as §1
# [7] = target: Neu5Ac(a2-3)Gal(b1-4)GlcNAc(b1-3)Gal(b1-4)GlcNAc(b1-3)Gal(b1-4)GlcNAc
# Outline: as §1
# [8] = target: Neu5Ac(a2-3)Gal(b1-4)GlcNAc(b1-3)Gal(b1-4)GlcNAc(b1-3)Gal(b1-4)GlcNAc(b1-2)Man(a1-3)[Neu5Ac(a2-3)Gal(b1-4)GlcNAc(b1-3)Gal(b1-4)GlcNAc(b1-3)Gal(b1-4)GlcNAc(b1-2)Man(a1-6)]GalNAc
# Outline: as §1
# [9] = target: Neu5Ac(a2-3)Gal(b1-4)GlcNAc(b1-3)Gal(b1-4)GlcNAc(b1-3)GalNAc
# Outline: as §1
# [10] = target: Neu5Ac(a2-3)Gal(b1-4)GlcNAc(b1-3)Gal(b1-4)GlcNAc(b1-3)[Neu5Ac(a2-3)Gal(b1-4)GlcNAc(b1-3)Gal(b1-4)GlcNAc(b1-6)]GalNAc
# Outline: as §1
# [11] = target: Neu5Ac(a2-3)Gal(b1-4)GlcNAc(b1-3)Gal(b1-4)GlcNAc(b1-6)[Gal(b1-3)]GalNAc
# Outline: as §1
# [12] = target: Neu5Ac(a2-3)Gal(b1-4)GlcNAc(b1-3)Gal(b1-4)[Fuc(a1-3)]GlcNAc
# Outline: as §1
# [13] = target: Neu5Ac(a2-3)Gal(b1-4)GlcNAc(b1-3)GalNAc
# Outline: as §1
# [14] = target: Neu5Ac(a2-3)Gal(b1-4)GlcNAc(b1-3)[Neu5Ac(a2-3)Gal(b1-4)GlcNAc(b1-6)]GalNAc
# Outline: as §1
# [15] = target: Neu5Ac(a2-3)Gal(b1-4)GlcNAc(b1-6)GalNAc
# Outline: as §1
# [16] = target: Neu5Ac(a2-3)Gal(b1-4)GlcNAc(b1-6)[Gal(b1-3)]GalNAc
# Outline: as §1
# [17] = target: Neu5Ac(a2-3)Gal(b1-4)GlcNAc(b1-6)[Neu5Ac(a2-3)Gal(b1-3)]GalNAc
# Outline: as §1
# [18] = target: Neu5Ac(a2-3)Gal(b1-4)GlcNAc6S
# Outline: as §1
# [19] = target: Neu5Ac(a2-3)Gal(b1-4)[Fuc(a1-3)]GlcNAc
# Outline: as §1
# [20] = target: Neu5Ac(a2-3)Gal(b1-4)[Fuc(a1-3)]GlcNAc(b1-2)Man
# Outline: as §1
# [21] = target: Neu5Ac(a2-3)Gal(b1-4)[Fuc(a1-3)]GlcNAc(b1-3)Gal
# Outline: as §1
# [22] = target: Neu5Ac(a2-3)Gal(b1-4)[Fuc(a1-3)]GlcNAc(b1-3)Gal(b1-4)GlcNAc
# Outline: as §1
# [23] = target: Neu5Ac(a2-3)Gal(b1-4)[Fuc(a1-3)]GlcNAc(b1-3)Gal(b1-4)[Fuc(a1-3)]GlcNAc(b1-3)Gal(b1-4)[Fuc(a1-3)]GlcNAc
# Outline: as §1
# [24] = target: Neu5Ac(a2-3)Gal(b1-4)[Fuc(a1-3)]GlcNAc(b1-3)GalNAc
# Outline: as §1
# [25] = target: Neu5Ac(a2-3)Gal(b1-4)[Fuc(a1-3)]GlcNAc(b1-6)[Gal(b1-3)]GalNAc
# Outline: as §1
# [26] = target: Neu5Ac(a2-3)Gal(b1-4)[Fuc(a1-3)]GlcNAc(b1-6)[Neu5Ac(a2-3)Gal(b1-3)]GalNAc
# Outline: as §1
# [27] = target: Neu5Ac(a2-3)Gal(b1-4)[Fuc(a1-3)]GlcNAc6S
# Outline: as §1
# [28] = target: Neu5Ac(a2-3)Gal6S(b1-4)GlcNAc
# Outline: as §1
# [29] = target: Neu5Ac(a2-3)Gal6S(b1-4)[Fuc(a1-3)]GlcNAc
# Outline: as §1
# Neu5Ac(a2-3)GalNAc = target: Neu5Ac(a2-3)GalNAc
# Outline: as §1
# [30] = target: Neu5Ac(a2-3)GalNAc(b1-4)GlcNAc
# Outline: as §1
# [31] = target: Neu5Ac(a2-3)[GalNAc(b1-4)]Gal(b1-4)Glc
# Outline: as §1
# [32] = target: Neu5Ac(a2-3)[GalNAc(b1-4)]Gal(b1-4)GlcNAc
# Outline: as §1
# [33] = target: Neu5Ac(a2-3)[GalNAc(b1-4)]Gal(b1-4)GlcNAc(b1-3)GalNAc
# Outline: as §1
# [34] = target: Neu5Ac(a2-3)[Neu5Ac(a2-6)]GalNAc
# Outline: as §1
# Neu5Ac(a2-6)Gal = target: Neu5Ac(a2-6)Gal
# Outline: as §1
# [35] = target: Neu5Ac(a2-6)Gal(b1-3)GlcNAc(b1-3)[Gal(b1-4)GlcNAc(b1-6)]Gal(b1-4)Glc
# Outline: as §1
# Neu5Ac(a2-6)Gal(b1-4)Glc = target: Neu5Ac(a2-6)Gal(b1-4)Glc
# Outline: as §1
# [36] = target: Neu5Ac(a2-6)Gal(b1-4)GlcNAc
# Outline: as §1
# [37] = target: Neu5Ac(a2-6)Gal(b1-4)GlcNAc(b1-2)Man
# Outline: as §1
# [38] = target: Neu5Ac(a2-6)Gal(b1-4)GlcNAc(b1-2)Man(a1-3)Man(b1-4)GlcNAc(b1-4)GlcNAc
# Outline: as §1
# [39] = target: Neu5Ac(a2-6)Gal(b1-4)GlcNAc(b1-2)Man(a1-3)[Gal(b1-4)GlcNAc(b1-2)Man(a1-6)]Man(b1-4)GlcNAc(b1-4)GlcNAc
# Outline: as §1
# [40] = target: Neu5Ac(a2-6)Gal(b1-4)GlcNAc(b1-2)Man(a1-3)[GlcNAc(b1-2)Man(a1-6)]Man(b1-4)GlcNAc(b1-4)GlcNAc
# Outline: as §1
# [41] = target: Neu5Ac(a2-6)Gal(b1-4)GlcNAc(b1-2)Man(a1-3)[GlcNAc(b1-4)][Neu5Ac(a2-6)Gal(b1-4)GlcNAc(b1-2)Man(a1-6)]Man(b1-4)GlcNAc(b1-4)GlcNAc
# Outline: as §1
# [42] = target: Neu5Ac(a2-6)Gal(b1-4)GlcNAc(b1-2)Man(a1-3)[Man(a1-6)]Man(b1-4)GlcNAc(b1-4)GlcNAc
# Outline: as §1
binder,measurement,setting,value
HFR-3 (Triticum aestivum) (protein) MKGLLLCALALAFAAVTTHAQLQSCPTRCGKQADGMECPNNLCCSKDGYCGLGVDYCSAGAGCQSGACYDNKICGAQANGTLCRNNHCCSSGGRCGYGREYCSNGCQGGPCWADLKCGHLDNGKLCPNNLCCSQYGYCGLGPEFCGTGCQNGACSTDKPCGNKANGAPCTNNYCCSQYGSCGLGKDYCGTGCQNGACN,glycan array binding signal (z-score),[1],1.69
same,glycan array binding signal (z-score),[2],-1.14
same,glycan array binding signal (z-score),[3],0.371
same,glycan array binding signal (z-score),[4],0.04
same,glycan array binding signal (z-score),[5],-0.856
same,glycan array binding signal (z-score),[6],0.192
same,glycan array binding signal (z-score),[7],0.099
same,glycan array binding signal (z-score),[8],0.113
same,glycan array binding signal (z-score),[9],-1.41
same,glycan array binding signal (z-score),[10],0.555
same,glycan array binding signal (z-score),[11],-0.697
same,glycan array binding signal (z-score),[12],-0.597
same,glycan array binding signal (z-score),[13],-0.063
same,glycan array binding signal (z-score),[14],-1.27
same,glycan array binding signal (z-score),[15],-0.05
same,glycan array binding signal (z-score),[16],-0.478
same,glycan array binding signal (z-score),[17],0.231
same,glycan array binding signal (z-score),[18],-0.02
same,glycan array binding signal (z-score),[19],-0.56
same,glycan array binding signal (z-score),[20],-1.25
same,glycan array binding signal (z-score),[21],-1.15
same,glycan array binding signal (z-score),[22],-0.632
same,glycan array binding signal (z-score),[23],1.21
same,glycan array binding signal (z-score),[24],-0.052
same,glycan array binding signal (z-score),[25],0.714
same,glycan array binding signal (z-score),[26],0.498
same,glycan array binding signal (z-score),[27],1.16
same,glycan array binding signal (z-score),[28],-0.958
same,glycan array binding signal (z-score),[29],0.62
same,glycan array binding signal (z-score),Neu5Ac(a2-3)GalNAc,-1.48
same,glycan array binding signal (z-score),[30],1.18
same,glycan array binding signal (z-score),[31],-0.34
same,glycan array binding signal (z-score),[32],-0.488
same,glycan array binding signal (z-score),[33],-0.713
same,glycan array binding signal (z-score),[34],-0.358
same,glycan array binding signal (z-score),Neu5Ac(a2-6)Gal,0.138
same,glycan array binding signal (z-score),[35],0.158
same,glycan array binding signal (z-score),Neu5Ac(a2-6)Gal(b1-4)Glc,0.327
same,glycan array binding signal (z-score),[36],-0.588
same,glycan array binding signal (z-score),[37],0.755
same,glycan array binding signal (z-score),[38],-0.121
same,glycan array binding signal (z-score),[39],-0.458
same,glycan array binding signal (z-score),[40],-1.17
same,glycan array binding signal (z-score),[41],-0.678
same,glycan array binding signal (z-score),[42],1.41

# Reformatted as tab-separated lines: part of the list above
binder	measurement	setting	value
HFR-3 (Triticum aestivum) (protein) MKGLLLCALALAFAAVTTHAQLQSCPTRCGKQADGMECPNNLCCSKDGYCGLGVDYCSAGAGCQSGACYDNKICGAQANGTLCRNNHCCSSGGRCGYGREYCSNGCQGGPCWADLKCGHLDNGKLCPNNLCCSQYGYCGLGPEFCGTGCQNGACSTDKPCGNKANGAPCTNNYCCSQYGSCGLGKDYCGTGCQNGACN	glycan array binding signal (z-score)	[8]	0.113
same	glycan array binding signal (z-score)	[19]	-0.56
same	glycan array binding signal (z-score)	[20]	-1.25
same	glycan array binding signal (z-score)	[22]	-0.632
same	glycan array binding signal (z-score)	[26]	0.498
same	glycan array binding signal (z-score)	[32]	-0.488
same	glycan array binding signal (z-score)	[36]	-0.588
same	glycan array binding signal (z-score)	[39]	-0.458
